In PMC3431311:
These are yes or no findings as the source states them, for the method shown. In cells and extracts the contact can be indirect. Some results given as binding are weak or reduced against the parent protein; the word gives no strength.

Amino acid sequences for entries named in this document (tags omitted).
UniProt P29341: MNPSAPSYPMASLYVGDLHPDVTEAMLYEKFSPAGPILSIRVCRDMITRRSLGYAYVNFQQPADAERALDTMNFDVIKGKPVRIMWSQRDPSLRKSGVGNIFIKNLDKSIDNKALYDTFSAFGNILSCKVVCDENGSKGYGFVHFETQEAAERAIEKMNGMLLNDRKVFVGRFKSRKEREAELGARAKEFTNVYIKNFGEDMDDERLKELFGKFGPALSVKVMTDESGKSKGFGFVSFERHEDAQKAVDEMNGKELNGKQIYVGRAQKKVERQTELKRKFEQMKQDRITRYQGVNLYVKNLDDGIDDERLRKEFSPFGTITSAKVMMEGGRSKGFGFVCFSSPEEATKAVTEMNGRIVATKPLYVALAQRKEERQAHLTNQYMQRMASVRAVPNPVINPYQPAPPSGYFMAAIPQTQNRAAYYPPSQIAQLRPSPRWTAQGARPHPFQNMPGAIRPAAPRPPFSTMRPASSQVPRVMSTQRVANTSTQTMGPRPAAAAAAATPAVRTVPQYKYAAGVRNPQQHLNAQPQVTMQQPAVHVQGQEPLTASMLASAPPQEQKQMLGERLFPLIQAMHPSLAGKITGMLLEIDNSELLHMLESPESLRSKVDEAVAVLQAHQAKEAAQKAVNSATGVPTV

Legend:
[1] = molecular target: Q42-ATXN2 (expanded ATXN2 of the Atxn2-CAG42-knock-in mouse) (mouse (endogenous in cerebellum)) (UniProt O70305); assay: co-IP; ATXN2 immunoprecipitated with anti-ATXN2 antibody and Protein A/G-agarose from 200 ug soluble proteins of cerebellum of 6 months old wild-type, CAG42 and ATXN2-knock-out mice (lysis buffer 10 mM HEPES, 10 mM KCl, 5 mM MgCl2, 0.1% Igepal CA-630); PABPC1 detected by immunoblot
[2] = molecular target: T1, wild-type ATXN2 (Ataxin-2), murine (mouse (endogenous in cerebellum)) (UniProt O70305); assay: as above
T1 sequence: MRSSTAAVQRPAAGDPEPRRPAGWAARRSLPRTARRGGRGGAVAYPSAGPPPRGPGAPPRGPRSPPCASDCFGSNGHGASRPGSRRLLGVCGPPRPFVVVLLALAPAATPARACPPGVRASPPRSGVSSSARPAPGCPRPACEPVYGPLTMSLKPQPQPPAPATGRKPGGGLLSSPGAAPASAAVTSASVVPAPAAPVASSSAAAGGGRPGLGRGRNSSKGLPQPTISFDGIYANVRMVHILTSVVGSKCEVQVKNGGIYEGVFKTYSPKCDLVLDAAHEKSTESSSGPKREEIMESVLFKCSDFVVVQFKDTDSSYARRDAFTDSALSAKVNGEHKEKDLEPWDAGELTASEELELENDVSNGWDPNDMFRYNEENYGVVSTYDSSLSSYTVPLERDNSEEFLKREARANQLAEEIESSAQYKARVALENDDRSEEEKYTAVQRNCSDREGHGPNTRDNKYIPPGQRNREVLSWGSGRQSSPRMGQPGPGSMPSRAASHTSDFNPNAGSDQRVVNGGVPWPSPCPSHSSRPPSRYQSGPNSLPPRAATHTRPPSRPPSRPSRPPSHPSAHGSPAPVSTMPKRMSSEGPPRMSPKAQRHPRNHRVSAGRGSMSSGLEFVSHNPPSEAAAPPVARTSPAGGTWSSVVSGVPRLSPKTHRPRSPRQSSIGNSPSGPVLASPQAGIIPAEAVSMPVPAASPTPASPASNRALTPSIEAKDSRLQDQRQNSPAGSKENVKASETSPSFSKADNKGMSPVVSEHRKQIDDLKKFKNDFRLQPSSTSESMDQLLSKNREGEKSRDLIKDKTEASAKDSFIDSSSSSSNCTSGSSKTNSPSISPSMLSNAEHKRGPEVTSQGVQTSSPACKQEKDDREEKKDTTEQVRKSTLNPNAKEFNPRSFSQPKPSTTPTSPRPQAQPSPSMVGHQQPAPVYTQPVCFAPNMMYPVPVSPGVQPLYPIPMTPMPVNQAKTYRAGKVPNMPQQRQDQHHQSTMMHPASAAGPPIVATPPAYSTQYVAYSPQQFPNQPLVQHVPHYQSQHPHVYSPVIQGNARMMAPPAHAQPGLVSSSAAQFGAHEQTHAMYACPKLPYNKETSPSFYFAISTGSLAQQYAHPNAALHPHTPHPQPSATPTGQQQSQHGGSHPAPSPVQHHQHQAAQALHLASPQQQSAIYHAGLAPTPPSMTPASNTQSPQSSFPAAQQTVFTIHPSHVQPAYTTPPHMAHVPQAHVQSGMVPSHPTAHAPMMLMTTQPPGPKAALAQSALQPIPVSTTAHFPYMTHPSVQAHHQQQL

- binding [1]: binds
Substance: poly(A)-binding protein PABPC1, murine (from UniProt P29341 1-636)
- binding [2]: binds
